pIC50: −log10 of the molar value. Counter-ions that a name gives are not always drawn. Some results were stated once for a whole list of compounds, not compound by compound.
Biological target: T1, at least one of JAK1, JAK2, JAK3, TYK2, and ALK
T1 construct: fused on or other part: N-terminal His tag on the JAK1, JAK2 and JAK3 catalytic domains
Experiment: Inhibitory activity on JAK/ALK targets (IC50 for at least one kinase)
Assay type: biochemical
Settings: printed as less than 1000 nM, 800 nM, 500 nM, 200 nM, or 100 nM

SMILES	pIC50
O=C1Nc2cccc(c2)Nc2ncc(Cl)c(n2)Nc2cccc1c2 [Example C1, 6-Chloro-2,4,8,15,22-pentaazatetracyclo[14.3.1.1(3,7).1(9,13)]docosa-1(20),3(22),4,6,9(21),10,12,16,18-nonaen-14-one hydrochloride]	> 6.00
O=S1(=O)NCc2cccc(c2)Nc2nc(ncc2Cl)Nc2cccc1c2 [Example C3, 6-Chloro-16-thia-2,4,8,15,23-pentaazatetracyclo[15.3.1.1(3,7).1(9,13)]tricosa-1(21),3(23),4,6,9(22),10,12,17,19-nonaene 16,16-dioxide]	> 6.00
